From article PMC3640961 come the findings set out here.

Sequences of proteins named here, by UniProt entry; tags and fusion partners are left off.
UniProt O00459: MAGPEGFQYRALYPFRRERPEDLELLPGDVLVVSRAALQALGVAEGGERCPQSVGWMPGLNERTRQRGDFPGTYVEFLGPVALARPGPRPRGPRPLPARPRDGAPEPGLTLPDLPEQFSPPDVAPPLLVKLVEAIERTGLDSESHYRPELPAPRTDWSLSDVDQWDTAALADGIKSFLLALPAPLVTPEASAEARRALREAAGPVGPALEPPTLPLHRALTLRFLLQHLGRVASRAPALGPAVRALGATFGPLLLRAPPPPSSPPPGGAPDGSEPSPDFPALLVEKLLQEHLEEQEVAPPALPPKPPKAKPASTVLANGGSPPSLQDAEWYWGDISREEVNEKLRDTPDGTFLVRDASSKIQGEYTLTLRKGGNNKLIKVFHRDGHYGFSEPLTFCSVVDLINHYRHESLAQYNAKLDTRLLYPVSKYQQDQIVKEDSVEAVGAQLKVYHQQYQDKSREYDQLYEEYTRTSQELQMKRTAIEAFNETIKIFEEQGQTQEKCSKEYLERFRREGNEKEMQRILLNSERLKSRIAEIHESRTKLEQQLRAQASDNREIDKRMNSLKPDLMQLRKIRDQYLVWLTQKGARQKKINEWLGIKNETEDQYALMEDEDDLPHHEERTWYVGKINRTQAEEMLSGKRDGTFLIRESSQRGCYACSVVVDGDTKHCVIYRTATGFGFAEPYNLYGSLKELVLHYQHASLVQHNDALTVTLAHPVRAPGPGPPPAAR
UniProt P46109: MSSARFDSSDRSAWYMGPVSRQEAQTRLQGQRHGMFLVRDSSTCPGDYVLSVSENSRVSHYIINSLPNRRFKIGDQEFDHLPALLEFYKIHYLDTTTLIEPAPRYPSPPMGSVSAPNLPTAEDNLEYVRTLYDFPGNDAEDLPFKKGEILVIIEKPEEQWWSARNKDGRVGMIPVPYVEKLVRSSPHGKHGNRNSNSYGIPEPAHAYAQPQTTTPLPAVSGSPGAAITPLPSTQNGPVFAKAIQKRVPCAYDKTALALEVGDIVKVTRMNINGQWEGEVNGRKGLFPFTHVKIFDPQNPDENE
UniProt P16949: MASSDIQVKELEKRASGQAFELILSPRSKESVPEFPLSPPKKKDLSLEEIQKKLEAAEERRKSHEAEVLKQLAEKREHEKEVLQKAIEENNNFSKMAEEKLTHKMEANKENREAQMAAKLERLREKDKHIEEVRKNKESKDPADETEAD
UniProt P46108: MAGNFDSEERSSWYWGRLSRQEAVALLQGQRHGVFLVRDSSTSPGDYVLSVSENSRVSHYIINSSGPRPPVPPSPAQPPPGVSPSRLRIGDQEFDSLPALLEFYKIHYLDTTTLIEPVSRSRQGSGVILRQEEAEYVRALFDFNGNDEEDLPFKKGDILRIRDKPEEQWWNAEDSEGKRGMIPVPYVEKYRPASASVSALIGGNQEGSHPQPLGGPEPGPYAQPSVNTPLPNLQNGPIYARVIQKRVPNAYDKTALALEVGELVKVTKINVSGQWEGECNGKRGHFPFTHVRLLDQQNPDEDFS

Read-outs that look alike come from different tables or passages of the source. No constants are given. Whether binding was seen depends on the method and setting. In cells and extracts the contact can be indirect. These calls come from enrichment with a bait or labelling near it, and not all partners need be listed.

In assay [1] the target is haemagglutinin (HA)-tagged human Gab2 (human) (UniProt Q9UQC2).
The target is the same in assay [2]. The source holds these as a separate data set.
Assay [3] shares this target. This is another data set of the same source.
Assay [4] shares this target. This is another data set of the same source.
Assay [5] has the same target. This is another data set of the same source.

Regarding “p85β subunit of PI3K (PIK3R2) (from UniProt O00459 1-728)”, the binding entry in assay [1] is listed as “binds”.

On to CrkL (from UniProt P46109 1-303), for which the binding entry in assay [2] was “binds”.

Stathmin 1 (from UniProt P16949 1-149): the binding entry in assay [3] is “binds”.

On to “Casein kinase II α’ (CSNK2A2; CK2) (from UniProt P19784 1-350) (enzyme)”, for which the binding entry in assay [4] was “binds”.

For the molecule Crk adaptor (from UniProt P46108 1-304), the binding result in assay [2] is given as “binds”.

B1: SHIP2 (INPPL1) (enzyme, UniProt O15357 1-1258)
chain: MASACGAPGPGGALGSQAPSWYHRDLSRAAAEELLARAGRDGSFLVRDSESVAGAFALCVLYQKHVHTYRILPDGEDFLAVQTSQGVPVRRFQTLGELIGLYAQPNQGLVCALLLPVEGEREPDPPDDRDASDGEDEKPPLPPRSGSTSISAPTGPSSPLPAPETPTAPAAESAPNGLSTVSHDYLKGSYGLDLEAVRGGASHLPHLTRTLATSCRRLHSEVDKVLSGLEILSKVFDQQSSPMVTRLLQQQNLPQTGEQELESLVLKLSVLKDFLSGIQKKALKALQDMSSTAPPAPQPSTRKAKTIPVQAFEVKLDVTLGDLTKIGKSQKFTLSVDVEGGRLVLLRRQRDSQEDWTTFTHDRIRQLIKSQRVQNKLGVVFEKEKDRTQRKDFIFVSARKREAFCQLLQLMKNKHSKQDEPDMISVFIGTWNMGSVPPPKNVTSWFTSKGLGKTLDEVTVTIPHDIYVFGTQENSVGDREWLDLLRGGLKELTDLDYRPIAMQSLWNIKVAVLVKPEHENRISHVSTSSVKTGIANTLGNKGAVGVSFMFNGTSFGFVNCHLTSGNEKTARRNQNYLDILRLLSLGDRQLNAFDISLRFTHLFWFGDLNYRLDMDIQEILNYISRKEFEPLLRVDQLNLEREKHKVFLRFSEEEISFPPTYRYERGSRDTYAWHKQKPTGVRTNVPSWCDRILWKSYPETHIICNSYGCTDDIVTSDHSPVFGTFEVGVTSQFISKKGLSKTSDQAYIEFESIEAIVKTASRTKFFIEFYSTCLEEYKKSFENDAQSSDNINFLKVQWSSRQLPTLKPILADIEYLQDQHLLLTVKSMDGYESYGECVVALKSMIGSTAQQFLTFLSHRGEETGNIRGSMKVRVPTERLGTRERLYEWISIDKDEAGAKSKAPSVSRGSQEPRSGSRKPAFTEASCPLSRLFEEPEKPPPTGRPPAPPRAAPREEPLTPRLKPEGAPEPEGVAAPPPKNSFNNPAYYVLEGVPHQLLPPEPPSPARAPVPSATKNKVAITVPAPQLGHHRHPRVGEGSSSDEESGGTLPPPDFPPPPLPDSAIFLPPSLDPLPGPVVRGRGGAEARGPPPPKAHPRPPLPPGPSPASTFLGEVASGDDRSCSVLQMAKTLSEVDYAPAGPARSALLPGPLELQPPRGLPSDYGRPLSFPPPRIRESIQEDLAEEAPCLQGGRASGLGEAGMSAWLRAIGLERYEEGLVHNGWDDLEFLSDITEEDLEEAGVQDPAHKRLLLDTLQLSK
Turning to B1, in assay [5], the binding entry is given as “binds”.

B2: SHC1 (protein, UniProt P29353 1-583)
chain: MDLLPPKPKYNPLRNESLSSLEEGASGSTPPEELPSPSASSLGPILPPLPGDDSPTTLCSFFPRMSNLRLANPAGGRPGSKGEPGRAADDGEGIVGAAMPDSGPLPLLQDMNKLSGGGGRRTRVEGGQLGGEEWTRHGSFVNKPTRGWLHPNDKVMGPGVSYLVRYMGCVEVLQSMRALDFNTRTQVTREAISLVCEAVPGAKGATRRRKPCSRPLSSILGRSNLKFAGMPITLTVSTSSLNLMAADCKQIIANHHMQSISFASGGDPDTAEYVAYVAKDPVNQRACHILECPEGLAQDVISTIGQAFELRFKQYLRNPPKLVTPHDRMAGFDGSAWDEEEEEPPDHQYYNDFPGKEPPLGGVVDMRLREGAAPGAARPTAPNAQTPSHLGATLPVGQPVGGDPEVRKQMPPPPPCPGRELFDDPSYVNVQNLDKARQAVGGAGPPNPAINGSAPRDLFDMKPFEDALRVPPPPQSVSMAEQLRGEPWFHGKLSRREAEALLQLNGDFLVRESTTTPGQYVLTGLQSGQPKHLLLVDPEGVVRTKDHRFESVSHLISYHMDNHLPIISAGSELCLQQPVERKL
As for B2, in assay [5], the binding result is listed as “binds”.

B3: PIP1, an aspartyl protease (protein, UniProt P12273 29-146)
chain: QDNTRKIIIKNFDIPKSVRPNDEVTAVLAVQTELKECMVVKTYLISSIPLQGAFNYKYTACLCDDNPKTFYWDFYTNRTVQIAAVVDVIRELGICPDDAAVIPIKNNRFYTIEILKVE
Take B3: the binding result in assay [3] is on record as “binds”.

B4: Stathmin 2 (protein, UniProt Q93045 1-179)
chain: MAKTAMAYKEKMKELSMLSLICSCFYPEPRNINIYTYDDMEVKQINKRASGQAFELILKPPSPISEAPRTLASPKKKDLSLEEIQKKLEAAEERRKSQEAQVLKQLAEKREHEREVLQKALEENNNFSKMAEEKLILKMEQIKENREANLAAIIERLQEKERHAAEVRRNKELQVELSG
On to B4, for which the binding entry in assay [3] is given as “binds”.

B5: SHC2 (protein, UniProt P98077 1-582)
chain: MTQGPGGRAPPAPPAPPEPEAPTTFCALLPRMPQWKFAAPGGFLGRGPAAARAAGASGGADPQPEPAGPGGVPALAAAVLGACEPRCAAPCPLPALSRCRGAGSRGSRGGRGAAGSGDAAAAAEWIRKGSFIHKPAHGWLHPDARVLGPGVSYVVRYMGCIEVLRSMRSLDFNTRTQVTREAINRLHEAVPGVRGSWKKKAPNKALASVLGKSNLRFAGMSISIHISTDGLSLSVPATRQVIANHHMPSISFASGGDTDMTDYVAYVAKDPINQRACHILECCEGLAQSIISTVGQAFELRFKQYLHSPPKVALPPERLAGPEESAWGDEEDSLEHNYYNSIPGKEPPLGGLVDSRLALTQPCALTALDQGPSPSLRDACSLPWDVGSTGTAPPGDGYVQADARGPPDHEEHLYVNTQGLDAPEPEDSPKKDLFDMRPFEDALKLHECSVAAGVTAAPLPLEDQWPSPPTRRAPVAPTEEQLRQEPWYHGRMSRRAAERMLRADGDFLVRDSVTNPGQYVLTGMHAGQPKHLLLVDPEGVVRTKDVLFESISHLIDHHLQNGQPIVAAESELHLRGVVSREP
With B5, in assay [5], the binding entry is “binds”.
